Results are given in words; binding and its absence hold for the method and conditions named.
Biological target: GST-full length Alix (UniProt Q8WUM4)
Assay: co-sedimentation; 15–45% glycerol gradient ultracentrifugation with micro-fractionation; 20 mM Tris–HCl pH 7.6, 150 mM NaCl; 55,000 r.p.m., 8 h (also 12 h), 4 °C; fractions on SDS gels stained with SYPRO Ruby, densitometry; both purified

By UniProt entry, the sequences of proteins in these tests, tags left out. Residues count along the entry.
UniProt Q8WUM4: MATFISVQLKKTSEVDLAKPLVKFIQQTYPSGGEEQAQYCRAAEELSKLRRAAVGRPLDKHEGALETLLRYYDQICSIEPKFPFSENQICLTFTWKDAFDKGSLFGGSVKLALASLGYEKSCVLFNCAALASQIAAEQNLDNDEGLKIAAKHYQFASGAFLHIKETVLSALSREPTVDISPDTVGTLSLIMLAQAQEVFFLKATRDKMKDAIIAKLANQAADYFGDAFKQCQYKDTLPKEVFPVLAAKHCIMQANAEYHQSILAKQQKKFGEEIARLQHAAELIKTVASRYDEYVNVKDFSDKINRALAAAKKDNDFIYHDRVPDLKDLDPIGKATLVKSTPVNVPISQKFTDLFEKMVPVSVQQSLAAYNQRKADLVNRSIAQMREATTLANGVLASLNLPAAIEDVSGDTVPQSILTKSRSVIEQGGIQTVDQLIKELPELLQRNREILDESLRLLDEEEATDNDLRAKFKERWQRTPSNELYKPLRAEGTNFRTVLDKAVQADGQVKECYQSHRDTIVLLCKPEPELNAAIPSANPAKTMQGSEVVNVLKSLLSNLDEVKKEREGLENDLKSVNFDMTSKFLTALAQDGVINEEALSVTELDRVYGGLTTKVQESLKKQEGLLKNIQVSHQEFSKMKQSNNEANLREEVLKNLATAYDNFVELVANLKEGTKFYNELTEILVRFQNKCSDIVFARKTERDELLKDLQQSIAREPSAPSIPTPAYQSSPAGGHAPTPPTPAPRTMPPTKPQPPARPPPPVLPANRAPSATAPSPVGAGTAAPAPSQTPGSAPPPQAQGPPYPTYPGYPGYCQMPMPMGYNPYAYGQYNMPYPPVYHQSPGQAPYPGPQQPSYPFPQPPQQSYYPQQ
UniProt P02769, residues 25-607: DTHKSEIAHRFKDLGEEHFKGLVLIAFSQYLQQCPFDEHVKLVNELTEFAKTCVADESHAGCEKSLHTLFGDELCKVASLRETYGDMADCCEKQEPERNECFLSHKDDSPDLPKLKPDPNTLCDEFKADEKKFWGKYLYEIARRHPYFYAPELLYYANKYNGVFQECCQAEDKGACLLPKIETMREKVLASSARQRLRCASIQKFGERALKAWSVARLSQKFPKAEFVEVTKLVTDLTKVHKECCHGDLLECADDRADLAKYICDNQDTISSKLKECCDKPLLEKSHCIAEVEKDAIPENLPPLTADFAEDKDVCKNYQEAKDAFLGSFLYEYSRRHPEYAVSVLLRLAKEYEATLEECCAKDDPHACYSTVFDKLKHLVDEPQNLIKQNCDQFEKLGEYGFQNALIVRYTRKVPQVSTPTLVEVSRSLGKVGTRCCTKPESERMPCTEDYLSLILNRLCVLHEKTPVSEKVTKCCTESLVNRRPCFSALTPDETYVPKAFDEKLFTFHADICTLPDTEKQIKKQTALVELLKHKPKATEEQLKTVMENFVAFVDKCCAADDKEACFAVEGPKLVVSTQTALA

- binding: no binding
Substance: Albumin, 66 kDa (from UniProt P02769 25-607)

Reference: PMC9098882
